Measurements published in PubChem BioAssay AID493014 (National Center for Advancing Translational Sciences (NCATS), 2011).
This is one part of the list. Shown are side measurements of this screen, not its main read-out; they come without a call. Compounds called inactive in the main read-out are mostly missing here. Words in brackets tell the shape of the fitted curve; partial curves, single points and poor fits give uncertain potencies.

Experiment: qHTS Assay to Find Inhibitors of Chronic Active B-Cell Receptor Signaling
Conditions: ABC-DLBCL IkBa-CBG/CBR reporter, luminescence ratio (green luciferase fused to IkBa over red control in TMD8 lymphoma cells), 4 h
Procedure, shortened: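 Doxycycline induced both beetle luciferases in TMD8 lymphoma cells; IKK-driven degradation limits the IkappaBalpha-fused green signal, while red luminescence normalises for cell number and nonspecific effects. Compounds tested up to 46 uM, 4 hrs.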

[1] = measured here: CBR red luminescence, cell number
[2] = measured here: IkBa-CBG green luminescence

SMILES | AC50 [1] | AC50 [2]
O=C1NC(=O)N(CCNc2ncc(C(F)(F)F)cc2Cl)C(=O)C1Cc1ccc(Cl)cc1 (stereo not drawn) | 35.5 µM [falling, single point] | –
Ic1ccccc1CN[C@@H]1C2CCN(CC2)[C@@H]1C(c1ccccc1)c1ccccc1 | 10.3 µM [falling, partial curve] | 23.1 µM [rising, partial curve, poor fit]
O=C(C(=O)N1CCN(c2ccccc2F)CC1)c1c[nH]c2ccccc12 | 10 µM [falling, partial curve] | –
CCCCCCCSc1cc(OC)c(CCNC)cc1OC | 15.8 µM [falling, single point] | –
COc1ccccc1OC(=O)Nc1ccc(Cl)cc1 | 0.447 µM [rising, full curve, poor fit] | –
NCCCN1CCN(c2ccccc2)CC1 | 12.6 µM [falling, partial curve, poor fit] | –
C=CCn1c(O)c(C(CC)=NCC2CCCO2)c(=O)[nH]c1=O (stereo not drawn) | 7.94 µM [falling, partial curve, poor fit] | –
CC1CC(OC(=O)c2ccccc2)(c2ccccc2)C(C)CN1C (stereo not drawn) | 3.16 µM [rising, partial curve, poor fit] | –
CCOC(=O)c1c(-c2ccc(OC)cc2)oc2ccc(OC(=O)N(C)C)cc12 | 20.6 µM [falling, single point] | –
CCN(CCCNS(=O)(=O)c1ccc2c(c1)oc(=O)n2C)c1cccc(C)c1 | 14.6 µM [falling, partial curve] | –
CCCNC1=C(C)C(=O)C2=C(C1=O)C(COC(N)=O)[C@]1(OC)C3NC3CN21 (stereo partly drawn) | 12.6 µM [rising, partial curve, poor fit] | –
C[C@H]1CCC/C=C/C2C[C@H](O)CC2[C@H](O)/C=C/C(=O)O1 (stereo partly drawn) | 0.501 µM [falling, full curve, poor fit] | –
N#CC1=C(N)Oc2c(c(=O)oc3ccccc23)C1c1ccc(OC(=O)N2CCOCC2)cc1 (stereo not drawn) | 0.631 µM [falling, full curve, poor fit] | –
O=C(c1ccc2c(c1)ncn2C1CCCCC1)N1CCC2(CC1)OCCO2 | 35.5 µM [rising, single point] | 35.5 µM [falling, partial curve, poor fit]
Cc1cc(/C=C2\SC(=S)NC2=O)c(C)n1-c1ccc(O)cc1 | 17.8 µM [falling, partial curve, poor fit] | –
Cc1ccc(Cl)cc1N1CCN(CCN)CC1 | 2.91 µM [falling, single point] | –
Cc1cc(N)n(C2CCN(C)CC2)n1 | 14.1 µM [rising, partial curve, poor fit] | –
Cc1ccc(-c2cc(C(F)F)n3ncc(C(=O)N4CCC5(CC4)OCCO5)c3n2)cc1 | 0.0517 µM [rising, full curve, poor fit] | –
CCCCC(CC)COCCCN=Cc1c(O)[nH]c(=S)[nH]c1=O (stereo not drawn) | 2.51 µM [falling, partial curve, poor fit] | –
CC(=O)c1cccc(NC(=O)CCC2CCCC2)c1 | 3.55 µM [rising, single point] | –
O=c1nc(/C=C/c2ccc(Cl)cc2Cl)cc(C(F)(F)F)[nH]1 | 2.51 µM [rising, partial curve, poor fit] | –

Some of these compounds in order of molar mass, largest number first.
SMILES | AC50 [1] | AC50 [2]
CCCCC(CC)COCCCN=Cc1c(O)[nH]c(=S)[nH]c1=O (stereo not drawn) | 2.51 µM [falling, partial curve, poor fit] | –
Cc1cc(/C=C2\SC(=S)NC2=O)c(C)n1-c1ccc(O)cc1 | 17.8 µM [falling, partial curve, poor fit] | –
CC1CC(OC(=O)c2ccccc2)(c2ccccc2)C(C)CN1C (stereo not drawn) | 3.16 µM [rising, partial curve, poor fit] | –

The results go on.

SMILES | AC50 [1] | AC50 [2]
O=C(N/N=C/c1c(O)n(C2CC2)c(=S)[nH]c1=O)c1ccccc1O | 1.64 µM [falling, full curve] | –
Fc1ccc(CN2CCN(c3ccc(Cl)cc3)CC2)cc1 | 15.8 µM [rising, partial curve, poor fit] | –
O=C(NC(=O)c1c(F)cccc1F)Nc1ccccc1SC(F)F | 7.08 µM [falling, full curve, poor fit] | –
CC(C)OCCCNC(=O)c1c(N)n(CC2CCCO2)c2nc3ccccc3nc12 (stereo not drawn) | 14.6 µM [falling, single point] | –
COc1ccc(-[n+]2c(-c3ccccc3)cc(-c3ccc(C)cc3)cc2-c2ccccc2)cc1 | 11.2 µM [falling, single point] | –
CN[C@@H]1C[C@@H](c2ccc(Cl)c(Cl)c2)c2ccccc21 | 11.2 µM [falling, partial curve, poor fit] | 35.5 µM [rising, partial curve, poor fit]
CCC(C)NC(=O)c1c(N)n(Cc2ccc3c(c2)OCO3)c2nc3ccccc3nc12 (stereo not drawn) | 5.01 µM [falling, full curve, poor fit] | –
CN(C)C(Cc1ccc(C#N)cc1)C(=O)c1ccccc1 (stereo not drawn) | 10.3 µM [rising, partial curve] | –
Oc1ccccc1CN(CCc1ccccc1)Cc1ccccc1 | 28.2 µM [rising, single point] | –
O=c1[nH]c(=S)[nH]c(O)c1N=Nc1ccc2c(c1)OCO2 | 2.82 µM [falling, full curve] | –
O=C(N/N=C/c1c(O)n(Cc2ccco2)c(=O)[nH]c1=O)c1ccccc1O | 2.82 µM [falling, full curve] | –
C=CCOC(=O)c1ccccc1C(=O)OCC=C | 18.4 µM [rising, partial curve, poor fit] | –
CN1CCN(c2ccc([N+](=O)[O-])c3no[n+]([O-])c23)CC1 | 6.31 µM [falling, full curve, poor fit] | 2.51 µM [rising, full curve, poor fit]
CCOCC(=O)NC1CCSC1=O (stereo not drawn) | 35.5 µM [rising, partial curve, poor fit] | –
CCN(CC)C(=O)Oc1ccc2cc(Br)ccc2c1 | 0.731 µM [rising, partial curve] | –
O=C(N/N=C/c1c(O)n(Cc2ccccc2)c(=O)[nH]c1=O)c1ccccc1O | 2.59 µM [falling, full curve] | –
O=C(C(=O)N1CCOCC1)c1cn(Cc2ccccc2F)c2ccccc12 | 14.1 µM [falling, partial curve, poor fit] | –
C=CCN1C(=O)/C(=C/c2cc(C)n(-c3cccnc3)c2C)C(=O)NC1=S | 6.51 µM [rising, single point] | –
CC1CN=C(Nc2ccc(F)c(Cl)c2)S1 (stereo not drawn) | 11.2 µM [rising, partial curve, poor fit] | –
CCOP(=O)(OCC)Oc1cc(C)c(N(C)C)c(C)c1 | 22.4 µM [rising, single point] | –
C1CNC2NCCNC2N1 (stereo not drawn) | 2.82 µM [rising, partial curve, poor fit] | –

SMILES | AC50 [1] | AC50 [2]
CCCCCCCCCCOC(=O)Cn1c(COc2ccc(OC)cc2)[n+](C)c2ccccc21 | 35.5 µM [falling, single point] | –
CCOP(=S)(OCC)N1CCOCCOCCN(P(=S)(OCC)OCC)CCOCCOCC1 | 17.8 µM [falling, single point] | –
C#C[C@]1(O)CC[C@H]2[C@@H]3CCC4=Cc5nc6nc7ccccc7n6cc5C[C@]4(C)[C@H]3CC[C@@]21C | 29.1 µM [falling, single point] | –
Fc1ccc(-c2nc3c(-c4ccc(F)cc4)cnn3cc2CCN2CCOCC2)cc1 | 11.2 µM [falling, partial curve] | –
O=P(O)(O)C#Cc1ccccc1 | 32.6 µM [rising, single point] | –
CC(C)(C)c1ccc(C(=O)C2CCCN(C3CCC3)C2)cc1 (stereo not drawn) | 11.2 µM [rising, partial curve, poor fit] | –
Nc1ccccc1C(=O)c1ccccc1 | 9.2 µM [rising, single point] | –
Cc1cc([N+](=O)[O-])c2ccccc2[n+]1[O-] | 12.6 µM [falling, single point] | –
Cc1ccc(-c2csc(N3CCN(CCCn4c(-c5ccncc5)nc5ccccc54)CC3)n2)cc1 | 12.6 µM [falling, partial curve, poor fit] | –
Cc1cc(C)cc(N2C(=O)/C(=C\c3ccc(N4CCN(C)CC4)o3)C(=O)NC2=S)c1 | 11.2 µM [rising, partial curve, poor fit] | –
Cc1cc(NC(=O)CCl)nn1C | 11.2 µM [falling, partial curve, poor fit] | –
CN(C)c1ccc(P(=O)(OCc2ccccc2)C(O)c2ccncc2)cc1 (stereo not drawn) | 3.16 µM [rising, single point] | –
CN(C)CC/C=C1/c2ccccc2Sc2ccc(Cl)cc21 | 32.6 µM [falling, partial curve, poor fit] | –
CCCC[N+]1(C)[C@@H]2CC(OC(=O)[C@H](CO)c3ccccc3)C[C@H]1[C@@H]1O[C@@H]12 (stereo partly drawn) | 4.47 µM [rising, partial curve] | –
CCOC(=O)c1ccc(Nc2nc(C(=O)OCC)nc3ccccc23)cc1 | 22.4 µM [falling, single point] | –
Cn1ccnc1Sc1nc2ccccc2nc1NS(=O)(=O)c1ccccc1 | 11.2 µM [falling, partial curve, poor fit] | –
CCOc1ccc(/C=N/n2cc(-c3ccccc3)[nH]c2=S)cc1 | 2.82 µM [rising, partial curve] | –
O=[N+]([O-])c1ccc(N2CCCCC2)c2ncccc12 | 35.5 µM [rising, partial curve, poor fit] | –
CCN(CC)C(=O)c1ccc(N(Cc2ccccc2)S(C)(=O)=O)cc1 | 35.5 µM [rising, single point] | –
Cn1cccc1/C=C1\C(=O)NC(=O)N(Cc2ccccc2Cl)C1=O | 35.5 µM [rising, single point] | 35.5 µM [falling, single point]
CC(NCc1ccc(Cl)cc1Cl)C(O)c1ccccc1 (stereo not drawn) | 7.08 µM [rising, partial curve, poor fit] | –
